Measured values reported in PubChem BioAssay AID540276 (National Center for Advancing Translational Sciences (NCATS), 2011).
The whole screen tested about 300,000 compounds, of which about 5,400 (1.8%) were called active. Inconclusive results, whose numbers are uncertain, are shown with a selection of clear calls. The call rests on the fitted dose curve; tested in HEK293 cells. A potency beside an inconclusive call is a rough fit, not a confirmed value.
On the % scale 0 is the no-effect control and ±100 the full control effect; potency means the concentration at half of the fitted maximal effect.

Assay: qHTS for inhibitors of binding or entry into cells for Marburg Virus
Settings: Marburg virus pseudotyped entry inhibition, cell reporter; activity change, negative = inhibition: at 37.8 µM (top of the series) unless noted
For `NS(=O)(=O)c1ccc(CCNC(=O)c2cc(-c3cccs3)nc3ccccc23)cc1`, the Potency was active: 7.94 µM. In the case of `O=C(CNS(=O)(=O)c1ccc(Br)s1)N1CCCC1`, the Potency is reported as inconclusive: 5.62 µM [activator, single point]. With `COc1ccc(NS(=O)(=O)c2cccc(C(=O)NCC3(N4CCCCC4)CCCCC3)c2)cc1` the Potency was inconclusive: 0.282 µM [activator, full curve, poor fit]. For `Cc1cccc(NC(=O)c2nc(S(=O)(=O)Cc3ccccc3)ncc2Cl)c1`, the Potency was inconclusive: 25.1 µM [inhibitor, single point]. In the case of `CC(C)=NOCc1ccc(-c2cn([C@@H]3COC[C@@H]3O)nn2)cc1`, the Potency is reported as “inactive”. For `O=C1C(=O)N(CNc2cccnc2)c2ccccc21`, the Potency was inconclusive: 2.51 µM [activator, partial curve, poor fit]. For `O=[N+]([O-])c1c(Nc2ccccc2)ccc2nonc12`, the Potency was inconclusive: 0.092 µM [inhibitor, full curve, poor fit]. For `Cc1ccc(S(=O)(=O)c2nc(-c3ccc(F)cc3)oc2N2CCOCC2)cc1`, the Potency was inconclusive: 25.1 µM [inhibitor, single point]. In the case of `O=C(COc1ccc(C(=O)NCCc2ccccc2)cc1)Nc1ccccc1`, the “activity change, negative = inhibition” value is reported as inactive: 0.265%. For `COc1cccc(C(c2ccccc2)N2C3CCC2CN(S(=O)(=O)c2ccc(F)cc2)CC3)c1` (stereo not drawn), the Potency was inconclusive: 35.5 µM [inhibitor, partial curve, poor fit]. With `O=C(Nc1ccc(C2=NCCN2)cc1)c1ccc(C(=O)Nc2ccc(C3=NCCN3)cc2)c([N+](=O)[O-])c1` the Potency was inconclusive: 22.4 µM [inhibitor, single point]. With `CN(C)CCNC(=O)c1ccc2c(c1)N(Cc1c(F)cccc1Cl)C(=O)c1ccccc1S2` the Potency was inconclusive: 35.5 µM [inhibitor, single point]. With `COc1ccc(N2CCN(C(=O)Cc3ccc(Cl)cc3)CC2)cc1` the “activity change, negative = inhibition” value was inactive: 5.02%. For `CCOC(=O)c1cc(C(=O)NN)c(=O)[nH]c1C`, the Potency was inconclusive: 16.4 µM [activator, partial curve, poor fit]. With `Cc1ccc(-n2c(O)c(C=NCc3ccco3)c(=O)[nH]c2=S)cc1C` the “activity change, negative = inhibition” value was inactive: 1.98% [at 14.2 µM]. With `CC1(C)CN=c2s/c(=C\c3ccc(Cl)cc3)c(=O)n2C1` the Potency was inconclusive: 35.5 µM [inhibitor, partial curve, poor fit]. With `Cc1cc(C)n(-c2ccc(OCC(=O)O)nn2)n1` the “activity change, negative = inhibition” value was inactive: 10.9%. For `N#CC(C#N)=Cc1c[nH]c(=O)c(C#N)c1Nc1ccccc1`, the Potency was inconclusive: 3.55 µM [activator, single point]. With `Cc1ccc2nc(SCC(=O)c3ccccc3)nc(=O)n2c1` the Potency was inconclusive: 3.55 µM [activator, single point]. With `COc1ccc(Cl)cc1NC(=O)c1cccc(N2C(=O)C3CC=CCC3C2=O)c1` (stereo not drawn) the “activity change, negative = inhibition” value was inactive: -11.5%. In the case of `COc1ccc(CCN2CC(C(=O)N(C)Cc3ccc(C)o3)CCC2=O)cc1` (stereo not drawn), the Potency is reported as inconclusive: 0.562 µM [activator, partial curve, poor fit]. In the case of `Cc1ccc(S(=O)(=O)c2nc(-c3cccc(Cl)c3)oc2NCc2ccccc2)cc1`, the Potency is reported as inconclusive: 20 µM [inhibitor, single point]. With `CCN1CCN(c2nnc(-c3ccc(F)cc3)c3ccccc23)CC1` the Potency was inconclusive: 35.5 µM [inhibitor, single point]. With `O=C(c1cccc(COc2cccc3ccccc23)c1)N1CCCC1` the Potency was inconclusive: 4.61 µM [inhibitor, full curve, poor fit]. For `c1ccc(-c2cc3c(N4CCN(c5ccccc5)CC4)ncnc3s2)cc1`, the Potency was inconclusive: 31.6 µM [inhibitor, single point]. For `CCOC(=O)CN1C(=O)N[C@@H](c2cccc(C(F)(F)F)c2)[C@H](C(C)=O)[C@H]1C`, the Potency was inconclusive: 0.211 µM [activator, full curve, poor fit]. For `Cc1cc(C(F)(F)F)n2[nH]c(=O)c(N=Nc3ccccc3)c2n1`, the Potency was inconclusive: 7.08 µM [inhibitor, partial curve, poor fit]. In the case of `COc1ccc(-c2nnc(COc3ccc4ccccc4c3)o2)cc1OC`, the Potency is reported as inconclusive: 5.8 µM [inhibitor, single point]. With `Cc1[nH]n(-c2ccccc2)c(=O)c1-c1ccccc1` the Potency was inconclusive: 12.6 µM [activator, partial curve, poor fit]. In the case of `C#CCN1C(=O)S/C(=C\c2ccc(-c3ccc(C(=O)O)cc3C)o2)C1=O`, the Potency is reported as inconclusive: 3.98 µM [activator, partial curve, poor fit]. With `CCOC(=O)N1CCC(n2c(SCC(=O)NCCC3=CCCCC3)nc3ccccc3c2=O)CC1` the Potency was inconclusive: 11.6 µM [inhibitor, partial curve, poor fit]. For `CC(=O)c1cccc(NC(=O)N2CCCC2C(=O)NCCC(C)C)c1` (stereo not drawn), the Potency was inconclusive: 2.51 µM [activator, full curve, poor fit]. In the case of `O=C(CNC(=O)c1sc2ccccc2c1Cl)NCc1cccc(C(F)(F)F)c1`, the Potency is reported as inconclusive: 14.1 µM [activator, single point]. In the case of `CCCNS(=O)(=O)c1cccn1-c1ncc(C(F)(F)F)cc1Cl`, the “activity change, negative = inhibition” value is reported as inactive: 9.72%. With `CC[N+]1(C)CCC(O)(c2ccc(OC)cc2)C(C(=O)c2ccc(OC)cc2)C1` (stereo not drawn) the Potency was inconclusive: 35.5 µM [inhibitor, single point]. In the case of `COc1ccc(-c2ccc(/C=N/N3C(=O)C4C5C=CC(C6CC56)C4C3=O)o2)c([N+](=O)[O-])c1` (stereo not drawn), the Potency is reported as inconclusive: 35.5 µM [inhibitor, single point]. In the case of `CCN1CCN(C(=S)NCc2ccc(C)cc2)CC1`, the Potency is reported as inconclusive: 3.55 µM [activator, full curve, poor fit]. For `Oc1ccc(/C=N/N=C/c2ccc(O)c(O)c2)cc1O`, the Potency was inconclusive: 35.5 µM [inhibitor, single point]. For `O=C(Nc1ccc(S(=O)(=O)Nc2ncccn2)cc1)c1ccccc1NS(=O)(=O)c1ccc(F)cc1`, the Potency was inconclusive: 12.6 µM [activator, single point]. For `COc1cc(CNCCc2ccc(S(N)(=O)=O)cc2)ccc1OCC(=O)NC(C)(C)C`, the Potency was inconclusive: 7.94 µM [inhibitor, partial curve, poor fit]. For `COc1ccc(NC(=O)C2=CC(c3ccc4c(c3)OCO4)=NS(=O)(=O)N2C)cc1`, the “activity change, negative = inhibition” value was inactive: 1.58% [at 46.1 µM]. For `Cc1ccc(C)c(OCc2cc(C(=O)NC3CCOC(C)(C)C3)no2)c1` (stereo not drawn), the “activity change, negative = inhibition” value was inactive: 5.26%. With `COc1ccc(C(=O)Nc2ccccc2C(=O)N/N=C/c2ccc(O)c(OC)c2)cc1` the Potency was active: 0.398 µM. In the case of `O=C(NCc1ccc2c(c1)OCO2)C1CCN(Cc2cnn(-c3ccccc3)c2-n2cccc2)CC1`, the Potency is reported as inconclusive: 35.5 µM [inhibitor, single point]. In the case of `Cc1ccc(NC(=O)CCNS(=O)(=O)c2cccc3nonc23)cc1`, the “activity change, negative = inhibition” value is reported as inactive: 12.1%. In the case of `O=C(CCSc1nnc(-c2ccccc2)o1)N1CCOCC1`, the Potency is reported as inconclusive: 11.2 µM [activator, partial curve, poor fit]. For `CO/N=C(/CNC(=O)c1cccc(Cl)c1)c1ccc(Cl)cc1`, the Potency was inconclusive: 7.08 µM [inhibitor, full curve, poor fit]. With `CCOc1ccc(C(=O)c2cn(CC(=O)Nc3ccc(F)cc3)c3cc4c(cc3c2=O)OCCO4)cc1` the “activity change, negative = inhibition” value was inactive: -5.26% [at 46.1 µM]. In the case of `Cc1ccc(S(=O)(=O)N(CC(O)CN2CCOCC2)c2cc(Cl)ccc2Cl)cc1` (stereo not drawn), the Potency is reported as “inactive”. With `Cc1nn(Cc2ccccc2)c(C)c1C(=O)OCC(=O)c1cc(C)n(CC(F)(F)F)c1C` the Potency was inconclusive: 15.8 µM [inhibitor, single point]. With `COCCNC(=O)CN(c1ccc(F)cc1)S(=O)(=O)c1ccc2c(c1)OCCO2` the Potency was inconclusive: 11.2 µM [activator, partial curve]. For `CC(=O)Nc1ccc(S(=O)(=O)NC(CC(=O)NCCC2=CCCCC2)C(C)C)cc1` (stereo not drawn), the Potency was inconclusive: 1.58 µM [inhibitor, partial curve, poor fit]. With `COc1ccc(OCc2cc(C(=O)NCC(C)Oc3cccnc3)no2)c(Cl)c1` (stereo not drawn) the Potency was inconclusive: 7.08 µM [inhibitor, partial curve]. For `CCC(=O)Nc1cnc(NC(=O)c2cccc(F)c2)cc1C`, the Potency was inconclusive: 3.98 µM [inhibitor, partial curve, poor fit]. With `COc1cccc(C(=O)O/N=C/c2ccc(Sc3ccc(C)cc3)nc2)c1` the Potency was inconclusive: 3.98 µM [activator, full curve, poor fit]. With `C/C(CC(=O)NCc1ccc(Cl)cc1)=N\NC(=O)COc1ccc(C)cc1Br` the Potency was inconclusive: 7.08 µM [inhibitor, full curve, poor fit]. In the case of `COc1ccc(N2C(=O)C(Cl)=C(Nc3ccc(OC)cc3OC)C2=O)cc1`, the Potency is reported as inconclusive: 35.5 µM [inhibitor, partial curve, poor fit]. In the case of `O=C(Nc1ccc(Cl)cc1F)c1cc(S(=O)(=O)N2CCCCC2)ccc1F`, the Potency is reported as inconclusive: 35.5 µM [inhibitor, single point]. For `Cc1cc(-c2ccccc2)nc(N/N=C/c2ccccc2)n1`, the Potency was inconclusive: 1.12 µM [activator, partial curve, poor fit]. With `COc1cccc(C(=O)NCc2cn3ccccc3n2)c1` the “activity change, negative = inhibition” value was inactive: -10.5% [at 46.1 µM]. With `COC(=O)/C=C1\SC(=NC(=O)c2cccc([N+](=O)[O-])c2)NC1=O` the “activity change, negative = inhibition” value was inactive: 3.17% [at 46.1 µM]. With `Cc1ccc(-c2nn(C(C)(C)C)c3ncnc(N)c23)cc1` the Potency was inconclusive: 17.8 µM [inhibitor, partial curve, poor fit]. In the case of `c1csc(-c2nnc(NC3CCCCC3)c3ccccc23)c1`, the Potency is reported as inconclusive: 35.5 µM [inhibitor, single point].
